± gives the uncertainty stated by the source. Many of these values have a large error.

A short description of this series: self-splicing fitness, log relative to wild type (ln ratio); higher = more splicing; Tetrahymena group I intron in knt gene, E. coli kanamycin selection, DiMSum; sequences stand for … in CUCUCU…GGAGGGAAAAGUUAUCAGGCAUGCACCUGGUAGCUAGUCUUUAAACCAAUAGAUUGCAUCGGUUUAAAAGGCAAGACCGUCAAAUUGCGGGAAAGGGGUCAACAGCCGUUCAGUACCAAGUCUCAGGGGAAACUUUGAGAUGGCCUUGCAAAGGGUAUGGUAAUAAGCUGACGGACAUGGUCCUAACCACGCAGCCAAGUCCUAAGUCAACAGAUCUUCUGUUGAUAUGGAUGCAGUUCACAGACUAAAUGUCGGUCGGGGAAGAUGUAUUCUUCUCAUAAGAUAUAGUCGGACCUCUCCUUAAUGGGAGCUAGCGGAUGAAGUGAUGCAACACUGGAGCCGCUGGGAACUAAUUUGUAUGCGAAAGUAUAUUGAUUAGUUUUGGAGUACUCGUGGUCG
The gist of the method:
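Pooled colonies went to amplicon sequencing on an Illumina HiSeq 2500 after six replicate transformations. The plates were LB agar with 100 μg/mL carbenicillin, 50 μM IPTG and 0.2% rhamnose, with or without 25 μg/mL kanamycin, incubated overnight at 37°C or 30°C. The E. coli BL21(DE3) library had all eight P1ex-region intron nucleotides randomised, the intron placed in the knt kanamycin-resistance gene on pET-22b(+). DiMSum fitness is the error-weighted combination of replicate fold changes, kanamycin against none, normalised to wild type.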

With GACUAGCAAUAUUACGCUAU, the “self-splicing fitness (ln)” value (30 °C) was -3.58 ± 0.53.

With UAGGAGCAAUAUUACGCGCC, the “self-splicing fitness (ln)” value (30 °C) is -3.77 ± 0.53.

Take GGUUAGCAAUAUUACGAAAA: the “self-splicing fitness (ln)” value is -2.05 ± 0.41 (30 °C) and 0.949 ± 0.28 (37 °C).

As to GCGGAGCAAUAUUACGGAGG, the “self-splicing fitness (ln)” value (37 °C) is -1.54 ± 1.2.

As for UACGAGCAAUAUUACGCAGA, the “self-splicing fitness (ln)” value (30 °C) was -2.81 ± 0.76.

On to CGUGAGCAAUAUUACGUAAA, for which the “self-splicing fitness (ln)” value (30 °C) was -4.01 ± 0.72.

Regarding UUGGAGCAAUAUUACGGCUG, the “self-splicing fitness (ln)” value (37 °C) was -1.35 ± 0.57.

Consider GUUUAGCAAUAUUACGAGCU, for which, where the note is “30 °C”, the “self-splicing fitness (ln)” value was -3.97 ± 1.

As to GAUUAGCAAUAUUACGCCGA, where the note is “37 °C”, the “self-splicing fitness (ln)” value is -0.323 ± 0.62.

Take CGGUAGCAAUAUUACGCAAA: the “self-splicing fitness (ln)” value (30 °C) is -3.95 ± 0.61.

Turning to UGGAAGCAAUAUUACGAGGC, for the setting “37 °C”, the “self-splicing fitness (ln)” value is -2.48 ± 1.1.

With AGAUAGCAAUAUUACGCCAC, the “self-splicing fitness (ln)” value (30 °C) is -1.49 ± 0.51.

Regarding CGGGAGCAAUAUUACGAACU, the “self-splicing fitness (ln)” value (30 °C) is -3.58 ± 0.76.

As for GUCUAGCAAUAUUACGAUCU, the “self-splicing fitness (ln)” value is, setting by setting: (30 °C) -1.57 ± 0.12; (37 °C) -0.315 ± 0.14.

Take UCCGAGCAAUAUUACGAAUA: the “self-splicing fitness (ln)” value (37 °C) is -3.54 ± 0.59.

With UCAUAGCAAUAUUACGGUUA, the “self-splicing fitness (ln)” value was -1.37 ± 0.14 (30 °C) and -0.36 ± 0.11 (37 °C).

For UAGUAGCAAUAUUACGCGGC, the “self-splicing fitness (ln)” value (30 °C) is -3.16 ± 1 and the “self-splicing fitness (ln)” value (37 °C) is -0.949 ± 0.55.

In the case of CUCAAGCAAUAUUACGGAGU, the “self-splicing fitness (ln)” value runs as follows: (30 °C) -3.52 ± 0.17; (37 °C) -3.04 ± 0.18.

In the case of CGUGAGCAAUAUUACGUGAC, under “37 °C”, the “self-splicing fitness (ln)” value was -3.72 ± 0.52.

As to UGUAAGCAAUAUUACGCUAC, under “37 °C”, the “self-splicing fitness (ln)” value was -3.08 ± 0.61.

As to CCUCAGCAAUAUUACGGGCA, the “self-splicing fitness (ln)” value (30 °C) is -4.2 ± 0.59.

Regarding GAGUAGCAAUAUUACGCCCC, for the setting “30 °C”, the “self-splicing fitness (ln)” value was 0.741 ± 1.1.

In the case of UUUUAGCAAUAUUACGGCAU, the “self-splicing fitness (ln)” value is -2.8 ± 0.41 (30 °C) and -0.972 ± 0.29 (37 °C).

Turning to CCCCAGCAAUAUUACGAAUU, the “self-splicing fitness (ln)” value is -3.01 ± 0.23 (30 °C) and -1.59 ± 0.36 (37 °C).

Consider UUGGAGCAAUAUUACGAGCC, for which the “self-splicing fitness (ln)” value is -3.03 ± 0.77 (30 °C) and -1.07 ± 0.5 (37 °C).

Regarding AUCAAGCAAUAUUACGAUUU, the “self-splicing fitness (ln)” value runs as follows: (30 °C) -0.487 ± 0.056; (37 °C) -0.186 ± 0.072.

In the case of GUUGAGCAAUAUUACGAGUU, the “self-splicing fitness (ln)” value (30 °C) was -4.07 ± 0.6.

In the case of GCGGAGCAAUAUUACGGCAA, under “30 °C”, the “self-splicing fitness (ln)” value was -3.97 ± 0.59.

Take GCAGAGCAAUAUUACGCCGA: the “self-splicing fitness (ln)” value (30 °C) is -3.64 ± 0.63.

Turning to GAAGAGCAAUAUUACGACGU, the “self-splicing fitness (ln)” value was -0.922 ± 0.16 (30 °C) and -0.536 ± 0.18 (37 °C).

Take CCCGAGCAAUAUUACGAAGA: the “self-splicing fitness (ln)” value (37 °C) is -3.43 ± 1.

In the case of GUUGAGCAAUAUUACGUAUA, for the setting “37 °C”, the “self-splicing fitness (ln)” value is -4.33 ± 0.51.

Regarding UUGGAGCAAUAUUACGCCUU, the “self-splicing fitness (ln)” value is, setting by setting: (30 °C) -2.65 ± 1.1; (37 °C) -1.67 ± 0.61.

With CUUGAGCAAUAUUACGAGGA, under “37 °C”, the “self-splicing fitness (ln)” value was -3.72 ± 0.59.

As for GCAUAGCAAUAUUACGAAGU, where the note is “37 °C”, the “self-splicing fitness (ln)” value was -2.27 ± 0.51.

GUCAAGCAAUAUUACGUGGA: the “self-splicing fitness (ln)” value (30 °C) is -2.86 ± 0.17 and the “self-splicing fitness (ln)” value (37 °C) is -1.58 ± 0.12.

In the case of UUGGAGCAAUAUUACGGAGU, under “37 °C”, the “self-splicing fitness (ln)” value is -1.09 ± 0.65.

For the sequence CUUAAGCAAUAUUACGGACA, the “self-splicing fitness (ln)” value runs as follows: (30 °C) -3.61 ± 0.52; (37 °C) -1.62 ± 0.7.

As for UUGCAGCAAUAUUACGGAGC, for the setting “37 °C”, the “self-splicing fitness (ln)” value was -5 ± 0.72.

Turning to UUUAAGCAAUAUUACGGAAC, the “self-splicing fitness (ln)” value (37 °C) is -1.78 ± 0.56.

As for GUUAAGCAAUAUUACGCUAU, the “self-splicing fitness (ln)” value (30 °C) is -3.81 ± 0.73.

Turning to GAAGAGCAAUAUUACGCGCU, for the setting “37 °C”, the “self-splicing fitness (ln)” value is -2.65 ± 0.76.

CCUGAGCAAUAUUACGAAGU: where the note is “30 °C”, the “self-splicing fitness (ln)” value is -4.12 ± 0.75.

As for CGAGAGCAAUAUUACGAAUC, the “self-splicing fitness (ln)” value (37 °C) was -3.57 ± 1.

In the case of UUUAAGCAAUAUUACGCGGC, under “30 °C”, the “self-splicing fitness (ln)” value is -3.47 ± 0.53.

As for GGAGAGCAAUAUUACGCAAA, under “37 °C”, the “self-splicing fitness (ln)” value is -1.44 ± 0.52.

Consider CUCGAGCAAUAUUACGCUCC, for which the “self-splicing fitness (ln)” value by setting is: (30 °C) -3.16 ± 1; (37 °C) -1.5 ± 0.88.

For UUUUAGCAAUAUUACGAUUG, the “self-splicing fitness (ln)” value was -1.52 ± 0.14 (30 °C) and -0.255 ± 0.16 (37 °C).

On to CCAUAGCAAUAUUACGGCCU, for which the “self-splicing fitness (ln)” value (37 °C) is -3.02 ± 0.53.

As for GGUGAGCAAUAUUACGGAAA, for the setting “37 °C”, the “self-splicing fitness (ln)” value was -1.71 ± 0.53.

Take GAAUAGCAAUAUUACGUACU: the “self-splicing fitness (ln)” value reads like this: (30 °C) -0.732 ± 0.11; (37 °C) -0.151 ± 0.12.
